Among the data in paper PMC10878155 are binding values, retold here.

Protein sequences, listed by entry. Tags and fused reporters are not part of them.
UniProt P17096: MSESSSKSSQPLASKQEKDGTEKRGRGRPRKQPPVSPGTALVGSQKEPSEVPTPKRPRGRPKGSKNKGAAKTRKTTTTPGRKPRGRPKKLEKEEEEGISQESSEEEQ

One experiment addresses STMN1 (UniProt P16949). Nature of the experiment: affinity purification with mass spectrometry; STMN1 precipitated with primary antibody on magnetic beads from IP lysis buffer lysate of STMN1-overexpressing NCI-H1299 cells, overnight at 4 °C; SDS-PAGE, LC-MS/MS identification.
A further experiment deals with T1, STMN1, P16949.
T1 chain: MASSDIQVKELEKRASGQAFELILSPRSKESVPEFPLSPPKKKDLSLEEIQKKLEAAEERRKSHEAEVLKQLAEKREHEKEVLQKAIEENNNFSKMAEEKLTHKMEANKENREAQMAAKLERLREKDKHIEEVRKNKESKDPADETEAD
Described as above. Particulars: remark: other sources report otherwise.

These are yes or no findings as the source states them, for the method shown. In cells and extracts the contact can be indirect. A yes stands for co-enrichment or nearness to the bait. Other partners may have been found. For some assays here: A no says only that the protein was not detected with the bait.

As for “high mobility group AT-hook 1 (from UniProt P17096 1-107)”, the binding entry in the experiment with STMN1 is given as “binds”.

B1: signal transducer and activator of transcription 1, P42224 1-750 (protein)
chain: MSQWYELQQLDSKFLEQVHQLYDDSFPMEIRQYLAQWLEKQDWEHAANDVSFATIRFHDLLSQLDDQYSRFSLENNFLLQHNIRKSKRNLQDNFQEDPIQMSMIIYSCLKEERKILENAQRFNQAQSGNIQSTVMLDKQKELDSKVRNVKDKVMCIEHEIKSLEDLQDEYDFKCKTLQNREHETNGVAKSDQKQEQLLLKKMYLMLDNKRKEVVHKIIELLNVTELTQNALINDELVEWKRRQQSACIGGPPNACLDQLQNWFTIVAESLQQVRQQLKKLEELEQKYTYEHDPITKNKQVLWDRTFSLFQQLIQSSFVVERQPCMPTHPQRPLVLKTGVQFTVKLRLLVKLQELNYNLKVKVLFDKDVNERNTVKGFRKFNILGTHTKVMNMEESTNGSLAAEFRHLQLKEQKNAGTRTNEGPLIVTEELHSLSFETQLCQPGLVIDLETTSLPVVVISNVSQLPSGWASILWYNMLVAEPRNLSFFLTPPCARWAQLSEVLSWQFSSVTKRGLNVDQLNMLGEKLLGPNASPDGLIPWTRFCKENINDKNFPFWLWIESILELIKKHLLPLWNDGCIMGFISKERERALLKDQQPGTFLLRFSESSREGAITFTWVERSQNGGEPDFHAVEPYTKKELSAVTFPDIIRNYKVMAAENIPENPLKYLYPNIDKDHAFGKYYSRPKEAPEPMELDGPKGTGYIKTELISVSEVHPSRLQTTDNLLPMSPEEFDEVSRIVGSVEFDSMMNTV
Regarding B1, the binding result with STMN1, P16949 is reported as “no binding”.
